Test results taken from PMC8464072.

By UniProt entry, the sequences of proteins in these tests, tags left out. Residues count along the entry.
UniProt P67809, 50-129: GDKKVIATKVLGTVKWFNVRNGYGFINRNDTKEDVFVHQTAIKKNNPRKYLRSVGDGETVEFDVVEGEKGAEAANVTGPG
UniProt P67809, 1-180 K137A/Y138A: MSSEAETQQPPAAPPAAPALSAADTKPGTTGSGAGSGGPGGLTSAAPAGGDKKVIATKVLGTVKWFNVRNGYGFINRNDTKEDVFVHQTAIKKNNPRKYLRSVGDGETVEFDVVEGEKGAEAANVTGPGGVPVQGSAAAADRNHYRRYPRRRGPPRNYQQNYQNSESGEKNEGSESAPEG
UniProt P67809, 1-180 R97A/K98A: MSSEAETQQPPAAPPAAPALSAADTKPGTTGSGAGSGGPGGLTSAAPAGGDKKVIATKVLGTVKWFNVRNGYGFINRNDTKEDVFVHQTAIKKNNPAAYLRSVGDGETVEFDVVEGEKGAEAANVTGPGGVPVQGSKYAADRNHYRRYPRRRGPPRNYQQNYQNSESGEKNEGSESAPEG
UniProt P67809, 1-180: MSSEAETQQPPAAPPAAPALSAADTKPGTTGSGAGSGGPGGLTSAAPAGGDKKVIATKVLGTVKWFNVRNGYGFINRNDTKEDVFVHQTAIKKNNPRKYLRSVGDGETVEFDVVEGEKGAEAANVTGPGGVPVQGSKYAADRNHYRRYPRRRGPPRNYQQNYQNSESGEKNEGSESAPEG

Key:
YB-1 CSD = YB-1 CSD (UniProt P67809); test: NMR (1H-15N HSQC); details: single peaks; NMR: 25 mM phosphate pH 6.8, 25 mM KCl, 298 K, 50-100 uM protein; recombinant protein; residues 50-129
YB-1-KY K137A,Y138A = YB-1-KY K137A,Y138A (UniProt P67809); test: fluorescence melting; details: melting less than YB-1C, read-out is unwinding; melting: 10 mM HEPES-KOH pH 7.6, 130 mM KCl, 30 C; recombinant protein; residues 1-180; protein details: His tag (Ni-NTA); label: 5' FAM, 3' BHQ1; folded or branched DNA
YB-1-RK R97A,K98A = YB-1-RK R97A,K98A (UniProt P67809); test: fluorescence melting; details: melting less than YB-1C, read-out is unwinding; melting: 10 mM HEPES-KOH pH 7.6, 130 mM KCl, 30 C; recombinant protein; residues 1-180; protein details: His tag (Ni-NTA); label: 5' FAM, 3' BHQ1; folded or branched DNA
YB-1C = YB-1C (UniProt P67809); test: NMR (1H-15N HSQC); details: single peaks, multimer; NMR: 25 mM phosphate pH 6.8, 25 mM KCl, 298 K, 50-100 uM protein; recombinant protein; residues 1-180; protein details: His tag (Ni-NTA); single-stranded DNA

ACAGACAGAACCCCUUCUGUCUGU [ACU-4G RNA stem/loop]
binding result (YB-1 CSD): binds

GGGGGGGGTTAACCCCCCCC [DNA1 hairpin]
binding result (YB-1-KY K137A,Y138A): binds more weakly
binding result (YB-1-RK R97A,K98A): binds more weakly

TTTTTTTTTTTTTTTTTTTTTTTTTTTTTT [poly(T) 30 nt]
binding result (YB-1C): binds

For some of these results: A weaker result is weaker than the reference pair of the same experiment. For some of these results: Construct, isoform or probe ends are uncertain for at least one entry. For some of these results: At least one verdict was read from the data and is not stated in words by the source.
